# From PubChem BioAssay AID624297 (National Center for Advancing Translational Sciences (NCATS), 2012)
# Hit rate of the full screen: of about 340,000 compounds, about 6,200 (1.8%) were called active. Inconclusive results, whose numbers are uncertain, are shown with a selection of clear calls. Calls come from the whole dose curve; as a rule, active = well fitted activation curve with a large enough effect; inconclusive = small, poorly fitted or top-dose-only effect; inactive = no such curve, though single readings can be large or run the other way. Potencies beside an inconclusive call are fits to weak or partial responses and may not hold up.
# Experiment: A quantitative high throughput screen for small molecules that induce DNA re-replication in SW480 colon adenocarcinoma cells. For re-replication activation: % of control where 0% means no effect. Note: nearly all actives have a fitted effect of over 55% in size.
# Conditions: Hoechst DNA content imaging, 48 h; re-replication activation: at 46.1 µM (top of the series) unless noted
# Method in brief: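 SW480 cells exposed to compounds for 48 hr at 37 C, 5% CO2, then Hoechst-stained 40 min. Nuclear DNA content imaged by fluorescence scanning (405 nm excitation, 500-530 nm emission); re-replication scored as increased high-intensity nuclei.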
# Potency is the fitted concentration of half-maximal effect.
Structure (SMILES),Potency,re-replication activation
CCCn1c(=N)c(C#N)cc2c(=O)n3ccccc3nc21,"inconclusive: 1.3 µM [activator, full curve, poor fit]",–
Cc1nc2ccccc2n1CC(O)COc1ccc(Br)cc1 (stereo unspecified),inactive,–
O=S(=O)(Cc1ccccc1Cl)NCCc1ccc(F)cc1,"inconclusive: 29.1 µM [activator, single point]",–
CC1(C)CN(c2ccccc2)N(C(=O)c2ccc(F)cc2)C1=O,"inconclusive: 18.4 µM [activator, partial curve, poor fit]",–
Cc1ccc(N2C(=O)CC(N(CCc3ccccc3)C(=S)Nc3ccc(N(C)C)cc3)C2=O)cc1 (stereo unspecified),"inconclusive: 29.1 µM [activator, partial curve, poor fit]",–
CCOC(=O)C1=C(CSc2nc(-c3ccccc3)ccc2C#N)OC(N)=C(C#N)C1c1ccc(OC)cc1 (stereo unspecified),"inconclusive: 29.1 µM [activator, single point]",–
NC(=S)C1COc2ccccc2O1 (stereo unspecified),"inconclusive: 2.31 µM [activator, single point]",–
CC(=O)NC1(C(Cl)(Cl)Cl)Oc2ccccc2O1,"inconclusive: 29.1 µM [activator, single point]",–
CCN1CCN(c2ccc(S(=O)(=O)N3CCCCC3)cc2NC(=O)/C=C/c2ccc(F)cc2)CC1,"inconclusive: 29.1 µM [activator, single point]",–
COC(=O)c1ccc(COc2ccccc2/C=N/NS(=O)(=O)c2ccc(C)cc2)cc1,"inconclusive: 29.1 µM [activator, single point]",–
COc1ccc(CC(=O)NCCS(=O)(=O)N2CCN(c3ccccc3OC)CC2)cc1,"inconclusive: 29.1 µM [activator, single point]",–
CCn1c2ccccc2c2nn(C)c(=N)nc21,inactive,–
CCNC(=S)N/N=C(\C)c1ccc2c(c1)OCCO2,"inconclusive: 16.4 µM [activator, partial curve, poor fit]",–
CCOC(=O)c1[nH]ncc1CN1CCN(Cc2ccc(C)cc2)C(CCO)C1 (stereo unspecified),inactive,–
C[C@@H](C(=O)N1CCN(c2ccccc2)CC1)N1C(=O)C2CC=CCC2C1=O (stereo partly specified),inactive,–
CC1CCN(c2ccc3c(c2)S(=O)(=O)c2cccc(C(=O)NC[C@@H]4CCCO4)c2C3=O)CC1,"inconclusive: 0.731 µM [activator, full curve, poor fit]",–
COc1ccccc1NC(=O)/C=C\c1ccco1,inactive,–
COCc1nnc(NC(=O)CS(=O)(=O)c2ccc(C)cc2)s1,inactive,–
Cc1ccc(/C=N/NC(=O)CSc2nnc(-c3ccc(Cl)cc3)n2-c2ccc(Cl)cc2)o1,"inconclusive: 25.9 µM [activator, single point]",–
Cc1nc(N2CCC(C)CC2)c2c(C)c(C(=O)Nc3cccc(C(F)(F)F)c3)sc2n1,"inconclusive: 16.4 µM [activator, partial curve]",–
CCOc1ccc(OCCNC(=O)c2ccc3c(c2)nnn3CC)cc1,inactive,–
COc1ccc(C(=O)NCC(=O)NCCc2c[nH]c3ccccc23)cc1OC,"inconclusive: 25.9 µM [activator, partial curve, poor fit]",–
CC(C(=O)NC1CCCc2ccccc21)N1CCN(c2ccc(F)cc2)CC1 (stereo unspecified),"inconclusive: 29.1 µM [activator, partial curve, poor fit]",–
COc1ccc(-n2ncc3c(NCc4cccs4)ncnc32)cc1,inactive,–

Structure (SMILES),Potency,re-replication activation
COc1ccc(S(=O)(=O)Nc2ccccc2OC)cc1N=Nc1c(O)[nH]c(=S)[nH]c1=O,inactive,–
CC(=O)Nc1ccc(S(=O)(=O)N2CCN(c3nc(NC4CCCC4)c4ccccc4n3)CC2)cc1,"inconclusive: 25.9 µM [activator, single point]",–
CCn1c(SCC(=O)O)nnc1-c1ccc(S(=O)(=O)N2CCCC2)cc1,"inconclusive: 1.84 µM [activator, partial curve]",–
Cc1ccc2cc(CN(CCN3CCOCC3)Cc3nnnn3Cc3ccco3)c(=O)[nH]c2c1C,inactive,–
COC(=O)c1nn(-c2cccc(C)c2)c2nnc(Cc3ccccc3)c(=O)n12,"inconclusive: 32.6 µM [activator, single point]",–
CCCCN(CC)CCNC(=O)c1cc2cc3ccc(Cl)cc3nc2o1,"inconclusive: 23.1 µM [activator, single point]",–
O=C(C[N+]1(CC#Cc2ccccc2)CCCCC1)c1ccccc1,inactive,–
O=C(Nc1nccs1)c1ccccn1,"inconclusive: 29.1 µM [activator, single point]",–
COC(=O)C1=C(COc2ccc(C=O)cc2OC)NC(=O)NC1c1cc(C)ccc1C (stereo unspecified),inactive,–
Cc1ccc(N(CC(=O)NC(C)C)C(=O)CCC(=O)Nc2nccs2)cc1,"inconclusive: 0.651 µM [activator, partial curve, poor fit]",–
CC(C)Cc1nc(Nc2ccccc2C#N)c2nnn(Cc3ccccc3)c2n1,"inconclusive: 29.1 µM [activator, single point]",–
O=C(CN1CCOCC1)N1c2ccccc2Sc2ccccc21,"inconclusive: 14.6 µM [activator, partial curve]",–
Oc1ccc(Cn2ccnc2)c2cccnc12,"inconclusive: 20.6 µM [activator, single point]",–
COc1ccc(C(=O)NCCN2CCOCC2)cc1S(=O)(=O)Nc1ccc(C)cc1,"inconclusive: 3.26 µM [activator, single point]",–
O=C(CCC1CCCCC1=O)c1ccccc1 (stereo unspecified),inactive,–
COc1ccccc1-n1c(C)nc2cc(C(=O)NCCN3CCOCC3)ccc21,active: 3.66 µM,–
O=C(Cc1nc2ccccc2[nH]1)c1ccc(Br)cc1,"inconclusive: 25.9 µM [activator, single point]",–
COc1ccc(C2Nc3ccccc3C(=O)N2NC(C)=O)c(OC)c1 (stereo unspecified),inactive,–
N#CC1=C(N)Oc2n[nH]c(-c3ccc(F)cc3)c2C1c1cccnc1 (stereo unspecified),inactive,–
O=S(=O)(c1cccs1)N1CN(Cc2cccs2)c2nc3ccccc3nc21,inactive,–
Cc1onc(-c2ccccc2)c1C(=O)Nc1cc(C(F)(F)F)ccc1N1CCOCC1,active: 11.2 µM,–
O=C(NCCCN1CCOCC1)c1cc2c([nH]c3ccccc32)c(-c2cccc(Br)c2)n1,inactive,–
Cc1cc(-n2c(C)cc(C(=O)COc3ccccc3[N+](=O)[O-])c2C)no1,"inconclusive: 29.1 µM [activator, single point]",–
O=c1c([N+](=O)[O-])c(O)c2ccccc2n1Cc1ccccc1,inactive,–

# Record cards, from the list above. Values in the order: Potency | re-replication activation
# O=S(=O)(c1cccs1)N1CN(Cc2cccs2)c2nc3ccccc3nc21 reads inactive | –
# COC(=O)c1nn(-c2cccc(C)c2)c2nnc(Cc3ccccc3)c(=O)n12 reads inconclusive: 32.6 µM [activator, single point] | –
# COc1ccc(C(=O)NCCN2CCOCC2)cc1S(=O)(=O)Nc1ccc(C)cc1 reads inconclusive: 3.26 µM [activator, single point] | –
# CC(C)Cc1nc(Nc2ccccc2C#N)c2nnn(Cc3ccccc3)c2n1 reads inconclusive: 29.1 µM [activator, single point] | –

# (further entries)

Structure (SMILES),Potency,re-replication activation
COC(=O)c1c(C)n(-c2ccccc2)c2ccc(O)cc12,"inconclusive: 29.1 µM [activator, single point]",–
COc1ccc(/C=C(\NC(=O)c2ccccc2)C(=O)N/N=C/c2ccncc2)cc1,inactive,–
CNCc1cc(Br)c(OCC(=O)Nc2ccccc2OC)c(OC)c1,"inconclusive: 29.1 µM [activator, single point]",–
O=C(COC(=O)/C=C/c1ccc(C(F)(F)F)cc1)NC1CCS(=O)(=O)C1 (stereo unspecified),"inconclusive: 23.1 µM [activator, partial curve, poor fit]",–
Cc1ccc(NC(=O)c2ccc(NC3=NC4CS(=O)(=O)CC4S3)cc2)cc1 (stereo unspecified),"inconclusive: 32.6 µM [activator, single point]",–
N=c1ccn(Cc2c(Cl)cccc2Cl)cc1,inactive,–
CCOC(=O)c1[nH]c2ccc(Br)cc2c1NC(=O)CCN1CCCC(C)C1 (stereo unspecified),–,inconclusive: -230% [activator]
Cc1ccc(CNC(=O)C2CC3Cn4c(nc5cc(C)c(C)cc54)C3N2C)o1 (stereo unspecified),"inconclusive: 6.51 µM [activator, single point]",–
CCn1c(=O)n(CC)c2cc(N3CCCC3)c(NC(=O)c3cc(Cl)ccc3OC)cc21,"inconclusive: 29.1 µM [activator, single point]",–
COC1(C)CC2C(CC1OC(=O)c1cc([N+](=O)[O-])cc([N+](=O)[O-])c1)C2(C)C (stereo unspecified),"inconclusive: 29.1 µM [activator, single point]",–
N#C/C(=C\c1cccs1)C(=O)c1ccccc1Cl,"inconclusive: 20.6 µM [activator, single point]",–
COc1ccc(Br)cc1/C=C/c1ccc2cccc(O)c2n1,"inconclusive: 16.4 µM [activator, single point]",–
Cn1c(=O)n(C)c2cc(NC(=O)c3ccc(F)cc3)ccc21,inactive,–
CC1CC(NC(=O)c2cc3c(=O)n4ccccc4nc3n2C)CC(C)(C)C1 (stereo unspecified),active: 10 µM,–
COc1ccc(/C=C/CN2CCC(Oc3ccc(C(=O)N4CCCCC4)cc3)CC2)cc1,"inconclusive: 23.1 µM [activator, single point]",–
COc1ccc(S(=O)(=O)N(C)c2ccc(C(=O)NC3CC3)cc2)cc1,inactive,–
COc1cc(C(=O)OCC(=O)c2ccccc2)cc2c1OCCO2,inactive,–
CCOc1ccc(NCc2nnc(SCC(=O)Nc3cc(C)on3)n2-c2ccccc2OC)cc1,"inconclusive: 23.1 µM [activator, single point]",–
Cc1ccccc1OCc1n[nH]c(=S)n1Cc1ccccc1,inactive,–
Clc1ccc2c(c1)C1=C(C(c3ccncc3)O2)C(c2ccc(Br)cc2)n2ncnc2N1 (stereo unspecified),"inconclusive: 23.1 µM [activator, single point]",–
CCOc1ccc(CCNC(=O)c2cc(=O)[nH]c3ccc(S(=O)(=O)N(CC)CC)cc23)cc1OCC,inactive,–
N#Cc1c(-c2ccccc2)nc(-c2ccccc2)nc1N1CCOCC1,inactive,–
CCCCNC(=O)Cc1coc2ccc3ccccc3c12,"inconclusive: 29.1 µM [activator, partial curve, poor fit]",–
